The results in this text go back to PMC6358775, “Elucidation of Vasodilation Response and Structure Activity Relationships of N^2,N^4-Disubstituted Quinazoline 2,4-Diamines in a Rat Pulmonary Artery Model” (Molecules, 2019).

The data set concerns A549 cells. Put plainly: MTT cytotoxicity assay in A549 cells. Particulars: for SI (PDE-5 vs. A549): selectivity: A549 IC50 over PDE-5 IC50, fold, value in brackets; for SI E+ vs. A549: selectivity: A549 IC50 over vasodilation E+ EC50, fold. It counts as cell-based, human. The protocol: A 3-[4,5-dimehyl-2-thiazolyl]-2,5-diphenyl-2H-tetrazoliumbromide (MTT) assay was utilized to assess the concentration-response curves for quinazoline analogues as previously reported. A549 cells (ATCC CCL-185, human alveolar basal epithelial cell line) were used to account for the general cytotoxicity of compounds. Cells were cultured in DMEM medium containing fetal bovine serum (FBS; 10%), penicillin (10 U/mL), and streptomycin (100 U/mL). The temperature was maintained at 37 °C with 5% CO2. Cells were seeded for 16–18 h in DMEM and incubated for 72 h with the test compounds. After incubation, MTT (5 mg/mL in normal saline) was added with DMEM and incubated for 3 h. Careful decantation of the medium and addition of DMSO (50 µL) was done. Absorbance values were recorded at 570 nm after 5 min mechanical shaking of the microplate (Sunrise microplate reader, Tecan).
The activity was presented as the inhibitory concentration required to produce a 50% response (IC50). Prism 6.0 GraphPad Software Inc., (San Diego, CA, USA) was utilized for data fitting. 0.5% DMSO was used as the negative control.
In general terms: Tetrazolium dyes change colour on reduction, which living cells bring about.

Where “and” joins values, the source holds several entries; their conditions need not be identical. Equal values may be shown once.

Consider `c1ccc(CNc2nc(Nc3ccccc3)nc3ccccc23)cc1` [Compound 1], for which the “SI (PDE-5 vs. A549)” value is 8.9 and the “SI E+ vs. A549” value is 2.2.
For `c1ccc(CNc2nc(Nc3ccc(N4CCOCC4)cc3)nc3ccccc23)cc1` [Compound 2] the same measures were 22.8 and 2.4.
Taken in the same sequence, the figures for `CN(C)S(=O)(=O)c1ccc(Nc2nc(NCc3ccccc3)c3ccccc3n2)cc1` [Compound 3] were 14.5 and 5.1.
For `NS(=O)(=O)c1ccc(Nc2nc(NCc3ccccc3)c3ccccc3n2)cc1` [Compound 4] the same measures were 24.2 and 7.3.
On to `NS(=O)(=O)c1cccc(Nc2nc(NCc3ccccc3)c3ccccc3n2)c1` [Compound 5], for which the “SI (PDE-5 vs. A549)” value stood at 159.3 and the “SI E+ vs. A549” value came to 6.8.
Taken in the same sequence, the figures for `c1ccc(Nc2nc(NCc3cccs3)c3ccccc3n2)cc1` [Compound 6] were 19.3 and 2.9.
Taken in the same sequence, the figures for `O=C(Nc1ccccc1)Nc1ccc(Nc2nc(NCc3cccs3)c3ccccc3n2)cc1` [Compound 7] were 3.7 and 0.7.
Turning to `c1csc(CNc2nc(Nc3ccc(N4CCOCC4)cc3)nc3ccccc23)c1` [Compound 8], the “SI (PDE-5 vs. A549)” value was determined as 22.3 and the “SI E+ vs. A549” value is reported as 19.6.
Regarding `NS(=O)(=O)c1ccc(Nc2nc(NCc3cccs3)c3ccccc3n2)cc1` [Compound 9], the “SI (PDE-5 vs. A549)” value is listed as 148.5; the “SI E+ vs. A549” value was ~ 32 and 31.7.
As for `NC(=O)c1ccc(Nc2nc(NCc3cccs3)c3ccccc3n2)cc1` [Compound 10], the “SI (PDE-5 vs. A549)” value is 157.2 and the “SI E+ vs. A549” value worked out at 19.4.
As for `NS(=O)(=O)c1cccc(Nc2nc(NCc3cccs3)c3ccccc3n2)c1` [Compound 11], the “SI (PDE-5 vs. A549)” value is 167.1 and the “SI E+ vs. A549” value worked out at 6.6.
Take `NC(=O)c1cccc(Nc2nc(NCc3cccs3)c3ccccc3n2)c1` [Compound 12]: the “SI (PDE-5 vs. A549)” value amounted to 53.2 and the “SI E+ vs. A549” value came out at 3.7.
For `NS(=O)(=O)c1cccc(Nc2nc(NCc3ccco3)c3ccccc3n2)c1` [Compound 13], the “SI (PDE-5 vs. A549)” value came to 224.3 and the “SI E+ vs. A549” value came to 4.1.
Taken in the same sequence, the figures for `Clc1cnc(Nc2ccccc2)nc1NCc1ccccc1` [Compound 14] were above 10 and above 22.3.
